In the supplement of paper PMC6078165:

Tested on: Hs578T
Experiment: relative JC-1 red fluorescence (viability) vs pre-drug, coculture with fibroblast (fraction); higher = more viable cancer cells
Description: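 JC-1 labelled TNBC cells cocultured 1:1 (1,500 cells each) with CellTrace Violet stained primary or stromal fibroblasts in 384-well plates in FluoroBrite medium, treated with one of 42 anticancer drugs at 0.1, 1, 10 or 100 uM. JC-1 red fluorescence (mitochondrial integrity in cancer cells only) was read by plate reader every 8 h for 72 h. Values are normalised to each well's pre-drug value. The stock of one drug was tenfold lower, so its dose labels may be too high.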

CCc1c2c(nc3ccc(OC(=O)N4CCC(N5CCCCC5)CC4)cc13)-c1cc3c(c(=O)n1C2)COC(=O)[C@]3(O)CC [Irinotecan]
relative JC-1 red fluorescence
Conditions | 8 h | 16 h | 24 h | 32 h | 40 h | 48 h | 56 h | 64 h | 72 h
10 µM | 0.876 ± 0.039 | 0.7942 ± 0.0044 | 0.765 ± 0.023 | 0.743 ± 0.025 | 0.705 ± 0.032 | 0.672 ± 0.043 | 0.656 ± 0.05 | 0.628 ± 0.049 | 0.626 ± 0.049
100 µM | 0.921 ± 0.016 | 0.875 ± 0.037 | 0.857 ± 0.021 | 0.8155 ± 0.0067 | 0.747 ± 0.0011 | 0.707 ± 0.01 | 0.719 ± 0.012 | 0.685 ± 0.033 | 0.694 ± 0.039

relative JC-1 red fluorescence
Conditions | 8 h | 16 h | 24 h | 32 h | 40 h | 48 h | 56 h | 64 h | 72 h
10 µM, coculture fibroblast: C12385 | 0.845 ± 0.02 | 0.7259 ± 0.0021 | 0.743 ± 0.028 | 0.66 ± 0.015 | 0.608 ± 0.021 | 0.58 ± 0.022 | 0.549 ± 0.028 | 0.537 ± 0.023 | 0.53 ± 0.031
10 µM, coculture fibroblast: H6013 | 0.846 ± 0.022 | 0.81 ± 0.02 | 0.776 ± 0.019 | 0.767 ± 0.044 | 0.749 ± 0.059 | 0.748 ± 0.074 | 0.732 ± 0.082 | 0.725 ± 0.094 | 0.707 ± 0.096
10 µM, coculture fibroblast: H6019 | 0.796 ± 0.016 | 0.718 ± 0.035 | 0.688 ± 0.027 | 0.59 ± 0.017 | 0.557 ± 0.025 | 0.53 ± 0.031 | 0.502 ± 0.03 | 0.494 ± 0.029 | 0.476 ± 0.029
10 µM, coculture fibroblast: H6076 | 0.919 ± 0.011 | 0.85578 ± 0.00078 | 0.805 ± 0.019 | 0.785 ± 0.0084 | 0.736 ± 0.025 | 0.738 ± 0.029 | 0.699 ± 0.05 | 0.692 ± 0.062 | 0.686 ± 0.062
10 µM, coculture fibroblast: H6231 | 0.9222 ± 0.0054 | 0.8432 ± 0.0055 | 0.797 ± 0.014 | 0.765 ± 0.017 | 0.699 ± 0.018 | 0.68 ± 0.012 | 0.629 ± 0.018 | 0.595 ± 0.019 | 0.584 ± 0.021
10 µM, coculture fibroblast: HADF | 0.87 ± 0.029 | 0.801 ± 0.03 | 0.743 ± 0.045 | 0.692 ± 0.052 | 0.647 ± 0.057 | 0.616 ± 0.059 | 0.575 ± 0.05 | 0.553 ± 0.052 | 0.521 ± 0.061
10 µM, coculture fibroblast: HCFa | 0.85 ± 0.042 | 0.845 ± 0.11 | 0.809 ± 0.15 | 0.774 ± 0.18 | 0.726 ± 0.2 | 0.702 ± 0.21 | 0.671 ± 0.22 | 0.665 ± 0.23 | 0.64 ± 0.24
10 µM, coculture fibroblast: HCPF | 0.943 ± 0.024 | 0.866 ± 0.054 | 0.794 ± 0.031 | 0.745 ± 0.011 | 0.692 ± 0.0091 | 0.6532 ± 0.0013 | 0.621 ± 0.013 | 0.575 ± 0.01 | 0.545 ± 0.032
10 µM, coculture fibroblast: HHSteC | 0.884 ± 0.022 | 0.851 ± 0.031 | 0.807 ± 0.045 | 0.778 ± 0.074 | 0.752 ± 0.094 | 0.724 ± 0.11 | 0.698 ± 0.12 | 0.67 ± 0.12 | 0.637 ± 0.12
10 µM, coculture fibroblast: HMF | 0.867 ± 0.046 | 0.805 ± 0.028 | 0.7608 ± 0.0019 | 0.748 ± 0.015 | 0.696 ± 0.03 | 0.672 ± 0.029 | 0.636 ± 0.028 | 0.62 ± 0.034 | 0.595 ± 0.054
10 µM, coculture fibroblast: HPFa | 0.901 ± 0.02 | 0.819 ± 0.005 | 0.7648 ± 0.0013 | 0.707 ± 0.016 | 0.668 ± 0.027 | 0.63 ± 0.032 | 0.581 ± 0.018 | 0.559 ± 0.024 | 0.518 ± 0.017
10 µM, coculture fibroblast: HUF | 0.90381 ± 0.00077 | 0.7744 ± 0.0046 | 0.8152 ± 0.0049 | 0.714 ± 0.012 | 0.6694 ± 0.0046 | 0.6533 ± 0.0021 | 0.6214 ± 0.00063 | 0.626 ± 0.0068 | 0.62 ± 0.01
10 µM, coculture fibroblast: Hs27A | 0.9001 ± 0.0064 | 0.8483 ± 0.0017 | 0.8162 ± 0.0023 | 0.7894 ± 0.0037 | 0.742 ± 0.013 | 0.718 ± 0.011 | 0.6727 ± 0.0014 | 0.663 ± 0.0097 | 0.612 ± 0.012
10 µM, coculture fibroblast: Hs343T | 0.884 ± 0.021 | 0.804 ± 0.017 | 0.776 ± 0.015 | 0.782 ± 0.014 | 0.728 ± 0.018 | 0.715 ± 0.015 | 0.674 ± 0.019 | 0.664 ± 0.019 | 0.655 ± 0.011
10 µM, coculture fibroblast: WS1 | 0.807 ± 0.0081 | 0.761 ± 0.033 | 0.755 ± 0.059 | 0.665 ± 0.063 | 0.604 ± 0.062 | 0.591 ± 0.069 | 0.553 ± 0.062 | 0.547 ± 0.073 | 0.532 ± 0.071
100 µM, coculture fibroblast: C12385 | 0.84 ± 0.018 | 0.827 ± 0.028 | 0.815 ± 0.049 | 0.763 ± 0.047 | 0.699 ± 0.038 | 0.681 ± 0.058 | 0.669 ± 0.048 | 0.658 ± 0.07 | 0.658 ± 0.08
100 µM, coculture fibroblast: H6013 | 0.919 ± 0.032 | 0.936 ± 0.064 | 0.8898 ± 0.00099 | 0.845 ± 0.041 | 0.84 ± 0.015 | 0.857 ± 0.02 | 0.801 ± 0.025 | 0.857 ± 0.049 | 0.858 ± 0.073
100 µM, coculture fibroblast: H6019 | 0.824 ± 0.026 | 0.8 ± 0.029 | 0.8007 ± 0.0041 | 0.731 ± 0.013 | 0.711 ± 0.022 | 0.72 ± 0.0086 | 0.715 ± 0.009 | 0.7209 ± 0.002 | 0.7176 ± 0.0063
100 µM, coculture fibroblast: H6076 | 0.95 ± 0.041 | 0.923 ± 0.058 | 0.925 ± 0.059 | 0.939 ± 0.071 | 0.912 ± 0.071 | 0.925 ± 0.088 | 0.918 ± 0.069 | 0.925 ± 0.058 | 0.938 ± 0.059
100 µM, coculture fibroblast: H6231 | 0.95946 ± 0.00091 | 0.921 ± 0.013 | 0.89 ± 0.014 | 0.842 ± 0.012 | 0.774 ± 0.022 | 0.758 ± 0.028 | 0.733 ± 0.027 | 0.72 ± 0.028 | 0.708 ± 0.022
100 µM, coculture fibroblast: HADF | 0.957 ± 0.022 | 0.895 ± 0.096 | 0.977 ± 0.024 | 0.951 ± 0.03 | 0.937 ± 0.021 | 0.936 ± 0.026 | 0.92 ± 0.018 | 0.92 ± 0.023 | 0.897 ± 0.027
100 µM, coculture fibroblast: HCFa | 0.911 ± 0.027 | 0.927 ± 0.029 | 0.92 ± 0.05 | 0.878 ± 0.04 | 0.847 ± 0.062 | 0.864 ± 0.062 | 0.866 ± 0.07 | 0.877 ± 0.056 | 0.871 ± 0.048
100 µM, coculture fibroblast: HCPF | 0.953 ± 0.013 | 0.899 ± 0.013 | 0.884 ± 0.026 | 0.846 ± 0.03 | 0.766 ± 0.037 | 0.742 ± 0.03 | 0.736 ± 0.027 | 0.695 ± 0.023 | 0.676 ± 0.03
100 µM, coculture fibroblast: HHSteC | 0.944 ± 0.028 | 0.953 ± 0.052 | 0.945 ± 0.066 | 0.928 ± 0.065 | 0.924 ± 0.075 | 0.92 ± 0.084 | 0.917 ± 0.11 | 0.888 ± 0.12 | 0.874 ± 0.13
100 µM, coculture fibroblast: HMF | 0.9359 ± 0.0049 | 0.9195 ± 0.0069 | 0.9147 ± 0.0056 | 0.885 ± 0.01 | 0.8226 ± 0.0015 | 0.79 ± 0.0085 | 0.801 ± 0.011 | 0.7854 ± 0.0058 | 0.7762 ± 0.0046
100 µM, coculture fibroblast: HPFa | 0.9382 ± 0.003 | 0.9542 ± 0.0073 | 0.936 ± 0.014 | 0.914 ± 0.012 | 0.915 ± 0.026 | 0.935 ± 0.014 | 0.934 ± 0.014 | 0.957 ± 0.012 | 0.921 ± 0.029
100 µM, coculture fibroblast: HUF | 0.867 ± 0.0096 | 0.807 ± 0.011 | 0.793 ± 0.0028 | 0.7023 ± 0.00085 | 0.639 ± 0.013 | 0.6 ± 0.017 | 0.562 ± 0.02 | 0.554 ± 0.034 | 0.553 ± 0.023
100 µM, coculture fibroblast: Hs27A | 0.9271 ± 0.0082 | 0.939 ± 0.022 | 0.938 ± 0.032 | 0.922 ± 0.026 | 0.8931 ± 0.0086 | 0.923 ± 0.013 | 0.903 ± 0.044 | 0.895 ± 0.048 | 0.851 ± 0.043
100 µM, coculture fibroblast: Hs343T | 0.968 ± 0.013 | 0.922 ± 0.013 | 0.894 ± 0.019 | 0.847 ± 0.011 | 0.77 ± 0.014 | 0.747 ± 0.018 | 0.718 ± 0.01 | 0.7138 ± 0.0062 | 0.707 ± 0.015
100 µM, coculture fibroblast: WS1 | 0.84 ± 0.024 | 0.813 ± 0.037 | 0.798 ± 0.036 | 0.706 ± 0.061 | 0.642 ± 0.065 | 0.637 ± 0.081 | 0.62 ± 0.081 | 0.621 ± 0.095 | 0.615 ± 0.099

± gives the standard deviation of the averaged measurements. The reference is the same well before dosing, and untreated signal decays as well.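 Fibroblast labels name human fibroblasts: mostly primary ones from tissues such as uterus (C12385, HUF), lung (H6013), bone (Hs27A), adrenal (HADF) and skin (WS1), plus mammary HMF and breast cancer-associated Hs343T. The cancer cells are basal-like or mesenchymal-like triple-negative breast cancer lines. The paper calls a changed response a hit when it shifts by more than 3x the replicate standard deviation. The tissue of the other fibroblasts is not given here.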
